Data source: PubChem BioAssay AID1259405 (NCATS, 2018)
Test: 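Knock-downs that lift recombinant protein yield in hamster ovary cells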 (primary screen). System: Chinese hamster CHO-K1 ovary cells with stable secreted eGFP expression. Reagent: single siRNA against mouse genes, 0.8 pmol siRNA per well (2 µl of 400 nM stock). Timing: 3 days. Measured: 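Percent of the per-plate non-targeting control median for intracellular GFP per well by laser scanning cytometry and for cell viability by ATP luminescence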. Direction: GFP, % of control: higher = more GFP per well, higher productivity; viability (ATP), % of control: higher = more viable cells (more ATP). Hit rule: 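Called active when intracellular GFP, relative to negative control, is at or above 120%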.
Shown is a random part of about 50,000 deposited reagents. About 4,000 of all reagents (8%) were called active. 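Mouse siRNA library applied to hamster cells; one well for each siRNA.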 A number with no mark means an inactive call. Reagents against one gene are numbered here. No sequences are given here.

gene symbol | reagent | GFP, % of control | viability (ATP), % of control
Fam184b (GeneID 58227) | 1 | 95.9 | 85.9
Fam184b (GeneID 58227) | 2 | 20.3 | 27.9
Fam184b (GeneID 58227) | 3 | 46.1 | 72.7
Ndufb10 (GeneID 68342) | 1 | 102 | 83.2
Ndufb10 (GeneID 68342) | 2 | 91.9 | 76.8
Zcchc17 (GeneID 619605) | 1 | 73.5 | 75.6
Zcchc17 (GeneID 619605) | 2 | 118 | 48.7
Zcchc17 (GeneID 619605) | 3 | 46.8 | 112
Abcd1 (GeneID 11666) | 1 | 76.4 | 80.7
Abcd1 (GeneID 11666) | 2 | 115 | 103
Abcd1 (GeneID 11666) | 3 | 58.7 | 85.9
Fzd7 (GeneID 14369) | 1 | 51.9 | 95.9
Fzd7 (GeneID 14369) | 2 | 89.5 | 83.3
Tbc1d14 (GeneID 100855) | 1 | 104 | 74.8
Tbc1d14 (GeneID 100855) | 2 | 51.4 | 54
Tbc1d14 (GeneID 100855) | 3 | 74.8 | 63.1
Cers5 (GeneID 71949) | 1 | 43.8 | 65.6
Cers5 (GeneID 71949) | 2 | 150 (active) | 113
Cers5 (GeneID 71949) | 3 | 103 | 97.1
Dtnbp1 (GeneID 94245) | 1 | 83.1 | 70.6
Dtnbp1 (GeneID 94245) | 2 | 69.7 | 83.9
Dtnbp1 (GeneID 94245) | 3 | 78.5 | 70
Taok3 (GeneID 330177) | 1 | 93.7 | 92.1
A430057M04Rik (GeneID 319486) | 1 | 56.5 | 62.2
A430057M04Rik (GeneID 319486) | 2 | 99.6 | 80.4
A430057M04Rik (GeneID 319486) | 3 | 70.7 | 92.6
Or52h7 (GeneID 259050) | 1 | 84.8 | 64.8
Or52h7 (GeneID 259050) | 2 | 82.4 | 76.7
Or52h7 (GeneID 259050) | 3 | 48.2 | 55.7
Setbp1 (GeneID 240427) | 1 | 99 | 88.5
Setbp1 (GeneID 240427) | 2 | 103 | 95.7
Zfp729a (GeneID 212281) | 1 | 39.8 | 57.3
Zfp729a (GeneID 212281) | 2 | 140 (active) | 99.1
Vxn (GeneID 76982) | 1 | 143 (active) | 97
Vxn (GeneID 76982) | 2 | 53.7 | 67.3
Vxn (GeneID 76982) | 3 | 80.5 | 58.5

2 successive records already listed:
gene symbol | reagent | GFP, % of control | viability (ATP), % of control
Setbp1 (GeneID 240427) | 1 | 99 | 88.5
Setbp1 (GeneID 240427) | 2 | 103 | 95.7
